Measurements published in patent US20180244699A1, “1-HYDROXY-3H-2,1-BENZOXABOROLE DERIVATIVES AND THEIR USE AS MICROBIOCIDES” (Syngenta Participations AG, priority 2015, published 2018).
Some of these results come from one statement about several compounds together. For some of these results: At least one compound was matched to its structure with a doubt left.

Experiments:
[1] = test system: Phaeosphaeria nodorum (Septoria nodorum); test: Phaeosphaeria nodorum (Septoria nodorum) / wheat / leaf disc preventative (glume blotch); assay type: in vivo; conditions: 200 ppm, wheat leaf segments, inoculated 2 days after application, compared to untreated control
[2] = test system: Botryotinia fuckeliana (Botrytis cinerea); test: Botryotinia fuckeliana (Botrytis cinerea) / liquid culture (gray mould); assay type: cell-based; conditions: 20 ppm, growth inhibition photometrically 3-4 days after application, compared to untreated control
Alternaria solani = Alternaria solani / tomato / leaf disc (early blight); assay type: in vivo; conditions: 200 ppm; tomato leaf disks, inoculated 2 days after application; compared to untreated control
[3] = test system: Puccinia recondite f. sp. tritici; test: Puccinia recondite f. sp. tritici / wheat / leaf disc curative (brown rust); assay type: in vivo; conditions: 200 ppm, wheat leaf segments, compound applied 1 day after inoculation, compared to untreated control
Pythium ultimum = Pythium ultimum / liquid culture (seedling damping off); assay type: cell-based; conditions: 20 ppm, growth inhibition photometrically 2-3 days after application, compared to untreated control
Description: 15. Pythium ultimum/Liquid Culture (Seedling Damping Off) Mycelia fragments and oospores of a newly grown liquid culture of the fungus are directly mixed into nutrient broth (PDB potato dextrose broth). After placing a (DMSO) solution of test compound into a microtiter plate (96-well format), the nutrient broth containing the fungal mycelia/spore mixture is added. The test plates are incubated at 24° C. and the inhibition of growth is determined photometrically 2-3 days after application.

Gaeumannomyces graminis = Gaeumannomyces graminis / liquid culture (take-all of cereals); assay type: cell-based; conditions: 20 ppm, growth inhibition photometrically 4-5 days after application, compared to untreated control
Description: 6. Gaeumannomyces Graminis/Liquid Culture (Take-all of Cereals) Mycelial fragments of the fungus from cryogenic storage were directly mixed into nutrient broth (PDB potato dextrose broth). After placing a (DMSO) solution of test compound into a microtiter plate (96-well format), the nutrient broth containing the fungal spores is added. The test plates are incubated at 24° C. and the inhibition of growth is determined photometrically 4-5 days after application.

COC(=O)c1ccc2c(c1OC)B(O)OC2 [Compound 1, methyl 1-hydroxy-7-methoxy-3H-2,1-benzoxaborole-6-carboxylate]
control of Phaeosphaeria nodorum [1]: at least 80% | control of Botryotinia fuckeliana [2]: at least 80%

COC(=O)c1ccc2c(c1O)B(O)OC2 [Compound 2, methyl 1,7-dihydroxy-3H-2,1-benzoxaborole-6-carboxylate]
control of Botryotinia fuckeliana [2]: at least 80%

CCOc1c(C(=O)OC)ccc2c1B(O)OC2 [Compound 4, methyl 7-ethoxy-1-hydroxy-3H-2,1-benzoxaborole-6-carboxylate]
control of Alternaria solani (Alternaria solani): at least 80% | control of Phaeosphaeria nodorum [1]: at least 80% | control of Botryotinia fuckeliana [2]: at least 80%

CNC(=O)c1ccc2c(c1OC)B(O)OC2 [Compound 8, 1-hydroxy-7-methoxy-N-methyl-3H-2,1-benzoxaborole-6-carboxamide]
control of Puccinia recondite f. sp. tritici [3]: at least 80%

CCOC(=O)N1CCC(NC(=O)c2ccc3c(c2OC)B(O)OC3)CC1 [Compound 18, ethyl 4-[(1-hydroxy-7-methoxy-3H-2,1-benzoxaborole-6-carbonyl)amino]piperidine-1-carboxylate]
control of Puccinia recondite f. sp. tritici [3]: at least 80%

COc1c(C(=O)NC(C)C)ccc2c1B(O)OC2 [Compound 34, 1-hydroxy-N-isopropyl-7-methoxy-3H-2,1-benzoxaborole-6-carboxamide]
control of Puccinia recondite f. sp. tritici [3]: at least 80%

COc1c(C(=O)Nc2nnc(C(F)(F)F)s2)ccc2c1B(O)OC2 [Compound 64, 1-hydroxy-7-methoxy-N-[5-(trifluoromethyl)-1,3,4-thiadiazol-2-yl]-3H-2,1-benzoxaborole-6-carboxamide]
control of Alternaria solani (Alternaria solani): at least 80% | control of Botryotinia fuckeliana [2]: at least 80%

COC(=O)C#CCOC(=O)c1ccc2c(c1OC)B(O)OC2 [Compound 79, (4-methoxy-4-oxo-but-2-ynyl) 1-hydroxy-7-methoxy-3H-2,1-benzoxaborole-6-carboxylate]
control of Botryotinia fuckeliana [2]: at least 80%

COc1c(C(=O)OCn2cccn2)ccc2c1B(O)OC2 [Compound 86, pyrazol-1-ylmethyl 1-hydroxy-7-methoxy-3H-2,1-benzoxaborole-6-carboxylate]
control of Botryotinia fuckeliana [2]: at least 80%

COc1c(C(=O)OCc2cccnc2C)ccc2c1B(O)OC2 [Compound 114]
control of Pythium ultimum (Pythium ultimum): at least 80% | control of Gaeumannomyces graminis (Gaeumannomyces graminis): at least 80%

COc1c(C(=O)OCC#Cc2ccccc2)ccc2c1B(O)OC2 [Compound 132, 3-phenylprop-2-ynyl 1-hydroxy-7-methoxy-3H-2,1-benzoxaborole-6-carboxylate]
control of Phaeosphaeria nodorum [1]: at least 80%
